Tested on: mesothelial layer covering the intestinal tract
Assay: First tests of peritoneal washing with collagenase on rat (Wistar)
Assay type: in vivo
Conditions: Wistar rats
Experimental: For the purpose of fine-tuning the volume of the cavity and the optimum treatment time so that no organ in the cavity will sustain any damage, twenty 6-week old Wistar rats weighing 250 grams were used, and they were tested at different concentrations of 35 U/mL of collagenase and 37 U/mL of collagenase for clinical use. Up until now, all the studies had been performed with collagenase for experimental use, nevertheless, the choice was made to use collagenase authorized for clinical use from now on, taking into account the potency equivalence calculations requested from the manufacturer. A study was then conducted using different times of treatment with collagenase from 2 minutes to 30 minutes (30, 20, 15, 10, 5, and 2) with n=2 in the 4 intermediate times.

For Collagenase, the “ideal concentration of collagenase” value was 35 U/mL and the best treatment time (35 U/mL) was 10 to 15 min.

Source: patent publication US20220047687A1, “CHEMICAL SCALPEL” (FUNDACIÓN INSTITUTO DE INVESTIGACIÓN SANITARIA FUNDACIÓN …, priority 2019, published 2022)
